In this assay the target is myc-tagged GABABR1a (rat) (UniProt Q9Z0U4). Put plainly: co-IP; HEK-293 T cells lysed 24 h after transfection with GABABR1^myc and wild-type or mutant GABABR2^flag; lysate incubated overnight at 4°C with Dynabeads protein G conjugated to rabbit anti-myc antibody; washes with decreasing molarity of NaCl; western blot with anti-FLAG, stripped and reprobed with anti-GABABR1; band intensity analysed in ImageJ. (In western blotting, separated proteins are transferred to a membrane and probed.)

Chains of the proteins cited; added tags and fusions are not shown. Residues count along the entry.
UniProt Q9Z0U4, residues 20-960: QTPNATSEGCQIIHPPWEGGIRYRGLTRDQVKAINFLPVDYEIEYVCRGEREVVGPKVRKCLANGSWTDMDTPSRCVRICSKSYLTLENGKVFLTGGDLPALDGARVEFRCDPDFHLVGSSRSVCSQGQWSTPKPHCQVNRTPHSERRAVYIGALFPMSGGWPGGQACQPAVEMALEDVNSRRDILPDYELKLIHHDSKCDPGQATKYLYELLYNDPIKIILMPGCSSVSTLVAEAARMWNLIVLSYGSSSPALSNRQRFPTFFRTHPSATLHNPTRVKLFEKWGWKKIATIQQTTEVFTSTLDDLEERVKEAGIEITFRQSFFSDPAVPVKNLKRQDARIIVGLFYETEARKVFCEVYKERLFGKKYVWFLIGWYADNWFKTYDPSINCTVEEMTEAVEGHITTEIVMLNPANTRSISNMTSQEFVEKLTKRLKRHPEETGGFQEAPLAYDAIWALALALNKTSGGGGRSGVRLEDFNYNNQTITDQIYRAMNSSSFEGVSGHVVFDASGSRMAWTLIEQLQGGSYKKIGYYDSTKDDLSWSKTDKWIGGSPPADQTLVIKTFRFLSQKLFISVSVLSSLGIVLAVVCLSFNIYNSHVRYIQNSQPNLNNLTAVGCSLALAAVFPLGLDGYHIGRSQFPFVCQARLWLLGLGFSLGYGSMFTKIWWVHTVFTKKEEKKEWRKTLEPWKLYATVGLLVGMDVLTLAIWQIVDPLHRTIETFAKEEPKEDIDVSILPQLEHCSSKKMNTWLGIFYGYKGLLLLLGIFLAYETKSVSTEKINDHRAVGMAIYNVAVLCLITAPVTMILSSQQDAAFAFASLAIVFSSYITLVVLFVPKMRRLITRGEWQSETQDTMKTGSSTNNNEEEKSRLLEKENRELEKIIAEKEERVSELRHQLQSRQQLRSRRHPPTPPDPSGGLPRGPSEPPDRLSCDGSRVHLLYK

These are yes or no findings as the source states them, for the method shown. Binding seen in cells or lysates may run through a third protein. Some entries that bind do so weakly or less than the wild type. Where a sequence is shown, tags or fusion partners need not be part of it.

B1: flag-tagged GABABR2 (wild-type) (receptor, UniProt O88871 41-940)
chain: WTRGAPRPPPSSPPLSIMGLMPLTKEVAKGSIGRGVLPAVELAIEQIRNESLLRPYFLDLRLYDTECDNAKGLKAFYDAIKYGPNHLMVFGGVCPSVTSIIAESLQGWNLVQLSFAATTPVLADKKKYPYFFRTVPSDNAVNPAILKLLKHFRWRRVGTLTQDVQRFSEVRNDLTGVLYGEDIEISDTESFSNDPCTSVKKLKGNDVRIILGQFDQNMAAKVFCCAFEESMFGSKYQWIIPGWYEPAWWEQVHVEANSSRCLRRSLLAAMEGYIGVDFEPLSSKQIKTISGKTPQQFEREYNSKRSGVGPSKFHGYAYDGIWVIAKTLQRAMETLHASSRHQRIQDFNYTDHTLGKIILNAMNETNFFGVTGQVVFRNGERMGTIKFTQFQDSREVKVGEYNAVADTLEIINDTIRFQGSEPPKDKTIILEQLRKISLPLYSILSALTILGMIMASAFLFFNIKNRNQKLIKMSSPYMNNLIILGGMLSYASIFLFGLDGSFVSEKTFETLCTVRTWILTVGYTTAFGAMFAKTWRVHAIFKNVKMKKKIIKDQKLLVIVGGMLLIDLCILICWQAVDPLRRTVERYSMEPDPAGRDISIRPLLEHCENTHMTIWLGIVYAYKGLLMLFGCFLAWETRNVSIPALNDSKYIGMSVYNVGIMCIIGAAVSFLTRDQPNVQFCIVALVIIFCSTITLCLVFVPKLITLRTNPDAATQNRRFQFTQNQKKEDSKTSTSVTSVNQASTSRLEGLQSENHRLRMKITELDKDLEEVTMQLQDTPEKTTYIKQNHYQELNDILSLGNFTESTDGGKAILKNHLDQNPQLQWNTTEPSRTCKDPIEDINSPEHIQRRLSLQLPILHHAYLPSIGGVDASCVSPCVSPTASPRHRHVPPSFRVMVSGL
B1: the binding entry is “binds”.

(Values after publication PMC11788220.)
